Data as given in patent US20130310421A1, “TREATMENT OF AMYLOID BETA AMYLOIDOSIS” (Temple University - Of The Commonwealth System of Higher …, priority 2012, published 2013).
At least one structure is not confirmed: it was looked up by name or label, or the drawing left a doubt.

Key:
3xTg mice [1] = assay: Brain Aβ1-40 and Aβ1-42 levels by sandwich ELISA in 3xTg mice; assay type: in vivo, mouse; conditions: cortex, 3xTg mice receiving MK-591, 14 months of age, vs 3xTg
3xTg mice [2] = assay: Sarkosyl insolubility assay for insoluble tau in 3xTg mice; assay type: in vivo, mouse; conditions: brain, 3xTg mice receiving MK-591, 14 months, vs 3xTg
N2A-APPswe cells [3] = assay: Aβ1-40 in conditioned media of N2A-APPswe cells, sandwich ELISA; assay type: cell-based; conditions: MK-591 1, 10, 25 μM, 24 hours vs vehicle
Tg2576 mice [4] = assay: Real-time quantitative RT-PCR of brain homogenates of Tg2576 mice; assay type: in vivo, mouse; conditions: MK-591 8 months vs placebo
Tg2576 mice [5] = assay: Brain Aβ1-40 and Aβ1-42 levels by sandwich ELISA in Tg2576 mice; assay type: in vivo, mouse; conditions: cerebral cortex and hippocampus, 15 month-old Tg2576 mice, MK-591 8 months vs placebo
3xTg mice [6] = assay: Electrophysiology of hippocampal slices (fEPSP, PPF, LTP) of 3xTg mice; assay type: in vivo, mouse
Protocol: The 3xTg mice harboring a mutant amyloid precursor protein (APP; KM670/671NL), a human mutant PS1 (M146V) knockin, and tau (P301L) transgenes, wild type mice (WT), and mice genetically deficient for FLAPKO (FLAPKO) used in this study were reported previously (Oddo S et al. Neuron 2003, 39:409-421; Byrum R S et al. J Exp Med 1997, 185:1065-1075). All the animals were backcrossed 10 times on the same genetic background C57BL6/SJL. The FLAPKO mice were crossbred several times with 3xTg mice to obtain founder animals (3xTg/FLAPKO), which were then crossed with each other. The animals from these crosses were used for the studies. The animals were kept in a pathogen-free environment, on a 12 hour light/dark cycle, and fed a normal chow and water ad libitum. Animals underwent behavioral testing at two different age groups (6-8 months and 12-14 months). Starting at 4-5 months of age, a separate group of five month old 3xTg mice were also randomized to receive MK-591 (40 mg/kg weight) in their chow diet, while some were sacrificed at 6 months of age for electrophysiology studies, others were kept on the same diet until they were 13-14 months old. Considering that each mouse eats approximately 5 g/day of the chow diet formulated for 320 mg MK-591 per kg diet (Harlan Teklad, Wis., USA), the final dose of the drug intake is about 40 mg/kg weight/day. […]
Six month old mice (n=# slices/# animals): WT (n=23/8); 3xTg (n=21/7); 3xTg-FLAPKO (n=21/6); 3xTg plus MK-591 (n=10/3) were sacrificed by rapid decapitation and brains were put into ice-cold artificial cerebral spinal fluid (CSF) in which sucrose (248 mM) was substituted for NaCl. […] We recorded field excitatory postsynaptic potentials (fEPSPs) from the CAl stratum radiatum by using an extracellular glass pipette ([…]) filled with ACSF. […] Baseline was recorded for 20 mins prior to tetanization with pulses every 30 seconds. […] The fEPSP rise/slope (mV/ms) between 30 and 90% was measured offline using Clampfit 10.3 (Molecular Devices, LLC) and normalized to the mean rise/slope of the baseline. […]

Tg2576 mice [7] = assay: Brain amyloid deposition, 4G8 immunohistochemistry in Tg2576 mice; assay type: in vivo, mouse; conditions: brain of Tg2576 mice, MK-591 8 months vs placebo
3xTg mice [8] = assay: Brain Aβ deposition immunohistochemistry in 3xTg mice; assay type: in vivo, mouse; conditions: 3xTg mice receiving MK-591, 14 months of age, vs 3xTg
Tg2576 mice [9] = assay: Western blot of brain homogenates of Tg2576 mice; assay type: in vivo, mouse
[10] = system: γ-secretase-mediated cleavage of Notch; assay: γ-secretase-mediated cleavage of Notch (NICD western blot) in transfected N2A-APPswe cells; assay type: cell-based; conditions: N2A-APPswe cells transfected with Myc-tagged mAE-Notch-1, 24-hour incubation vs vehicle
Protocol: For transfection studies, N2A-APPswe cells were transfected with 1 μg Myc-tagged mAE-Notch-1 complementary DNA overnight (a generous gift from Dr. L. D'Adamio, Albert Einstein Medical College, NY) by using Lipofectamine 2000 (Invitrogen). The media were removed and fresh media containing MK-591, L685, 458 or vehicle was added. After a 24-hour incubation, cell lysates were collected and Notch intracellular domain (NICD) expression levels assayed by western blot analysis.

3xTg mice [11] = assay: Y-maze in 3xTg mice; assay type: in vivo, mouse
3xTg mice [12] = assay: Fear conditioning in 3xTg mice; assay type: in vivo, mouse
3xTg mice [13] = assay: Immunoblot analyses of brain homogenates of 3xTg mice; assay type: in vivo, mouse
N2A-APPswe cells [14] = assay: Western blot of N2A-APPswe cell lysates; assay type: cell-based
Tg2576 mice [15] = assay: CD45 and GFAP immunohistochemistry (neuroinflammation) in Tg2576 mice; assay type: in vivo, mouse; conditions: brain sections, MK-591 vs vehicle
[16] = brain homogenates, MK-591 8 months vs control
[17] = brain homogenates, MK-591 vs placebo
[18] = 3xTg mice treated with MK-591 vs other groups
[19] = brain homogenates, MK-591 treated 3xTg mice vs 3xTg
[20] = brain, 3xTg mice receiving MK-591 vs controls
[21] = brain, 3xTg mice receiving MK-591 vs other groups
[22] = brain, 3xTg mice treated with MK-591, 14 months, vs 3xTg
[23] = brain, 3xTg mice treated with MK-591 vs control group
[24] = MK-591 1, 10, 25 μM, 24 hours vs vehicle

CC(C)(C)Sc1c(CC(C)(C)C(=O)O)n(Cc2ccc(Cl)cc2)c2ccc(OCc3ccc4ccccc4n3)cc12 [MK-591, 3-[3-tert-butylsulfanyl-1-[(4-chlorophenyl)methyl]-5-(quinolin-2-ylmethoxy)indol-2-yl]-2,2,-dimethylpropanoic acid]
RIPA-soluble Aβ1-40 (3xTg mice [1]): significant decrease | RIPA-soluble Aβ1-42 (3xTg mice [1]): significant decrease | formic-acid soluble Aβ1-40 (3xTg mice [1]): significant decrease | formic-acid soluble Aβ1-42 (3xTg mice [1]): significant decrease | insoluble tau level (3xTg mice [2]): significant reduction | Aβ1-40 formed (conditioned media) (N2A-APPswe cells [3]): dose-dependently reduced | APH-1 mRNA level (Tg2576 mice [4]): significantly reduced | BACE-1 mRNA level (Tg2576 mice [4]): no change | Nicastrin mRNA level (Tg2576 mice [4]): significantly reduced | PS1 mRNA level (Tg2576 mice [4]): significantly reduced | Pen-2 mRNA level (Tg2576 mice [4]): significantly reduced | insoluble (Formic acid extractable) Aβ1-40 level (Tg2576 mice [5]): significantly reduced | insoluble (Formic acid extractable) Aβ1-42 level (Tg2576 mice [5]): significantly reduced | soluble (RIPA extractable) Aβ1-40 level (Tg2576 mice [5]): significantly reduced | soluble (RIPA extractable) Aβ1-42 level (Tg2576 mice [5]): significantly reduced | LTP responses (3xTg mice [6]; hippocampal CA1, six month old 3xTg mice plus MK-591, restored to a level comparable to WT): completely restored | basal synaptic transmission, input/output (I/O) curves (3xTg mice [6]; hippocampal CA1 slices, six month old 3xTg mice plus MK-591 vs other groups): no differences | paired-pulse facilitation (PPF) (3xTg mice [6]; hippocampal slices, six month old 3xTg mice plus MK-591 vs other groups): no differences | amyloid burden (Aβ-immunopositive area, 4G8) (Tg2576 mice [7]): statistically significant reduction | Aβ deposition in brain (area of Aβ immunoreactivity) (3xTg mice [8]): significant decrease | APH-1 steady state level (Tg2576 mice [9]; [16]): statistically significant reduction | PS1 steady state level (Tg2576 mice [9]; [16]): statistically significant reduction | Pen-2 steady state level (Tg2576 mice [9]; [16]): statistically significant reduction | total APP levels (Tg2576 mice [9]; [16]): no difference | Nicastrin steady state level (reduction) (Tg2576 mice [9]; brain homogenates, MK-591 8 months vs control, p=0.06): did not reach statistical significance | CREB phosphorylated at Ser-133 steady state level (Tg2576 mice [9]; [17]): statistically significant decrease | Sp1 steady state level (Tg2576 mice [9]; [17]): did not significantly affect | total CREB steady state level (Tg2576 mice [9]; [17]): statistically significant decrease | apolipoprotein E (apoE) level (Tg2576 mice [9]; brain, MK-591 vs control): A similar result | insulin-degrading enzyme (IDE) steady state level (Tg2576 mice [9]; brain, MK-591 vs control): similar | neprilysin steady state level (Tg2576 mice [9]; brain, MK-591 vs control): similar | Notch intracellular domain (NICD) levels [10]: no significant difference | Y-maze total number of arm entries (general activity) (3xTg mice [11]; 3xTg mice receiving MK-591 about 40 mg/kg weight/day in chow, 6-8 and 12-14 months old): no differences | Y-maze percentage of alternations (working memory) (3xTg mice [11]; 3xTg mice receiving MK-591 vs 3xTg mice, both age groups (6-8 and 12-14 months)): significantly higher percentage | cued fear conditioning freezing percentage (3xTg mice [12]; 3xTg mice treated with MK-591 vs 3xTg mice (lower freezing)): normalized | contextual fear conditioning recall (3xTg mice [12]; [18]): a similar result | fear conditioning training session (3xTg mice [12]; [18]): No differences | CD45 immunoreactivity (microglia activation) (3xTg mice [13]; [19]): significant decrease | GFAP immunoreactivity (astrocyte activation) (3xTg mice [13]; [19]): significant decrease | Cdk5 kinase level (3xTg mice [13]; [20]): statistically significant decrease | p25 level (3xTg mice [13]; [20]): statistically significant decrease | p35 level (3xTg mice [13]; [20]): statistically significant decrease | phosphatase-A2 (PPA2) level (3xTg mice [13]; [21]): No changes | total and phosphorylated GSK3-α and GSK3-β steady-state levels (3xTg mice [13]; [21]): did not observe any significant differences | total and phosphorylated SAPK/JNK steady-state levels (3xTg mice [13]; [21]): did not observe any significant differences | APH-1 steady-state level (3xTg mice [13]; [22]): significant decrease | PS1 steady-state level (3xTg mice [13]; [22]): significant decrease | Pen-2 steady-state level (3xTg mice [13]; [22]): significant decrease | apolipoprotein E steady-state level (3xTg mice [13]; [22]): no changes | insulin-degrading enzyme steady-state level (3xTg mice [13]; [22]): no changes | neprilysin steady-state level (3xTg mice [13]; [22]): no changes | nicastrin steady-state level (3xTg mice [13]; [22]): significant decrease | phosphorylated tau, antibody AT270 (T181) (3xTg mice [13]; [22]): no changes | phosphorylated tau, antibody PHF-1 (epitopes S396/S404) (3xTg mice [13]; [22]): significant decrease | phosphorylated tau, antibody PHF-13 (epitopes 5396) (3xTg mice [13]; [22]): significant decrease | total APP steady-state level (3xTg mice [13]; [22]): no differences | total soluble tau level (3xTg mice [13]; [22]): no changes | α-secretase (ADAM-10) pathway (3xTg mice [13]; [22]): No differences | β-secretase (BACE-1) pathway (3xTg mice [13]; [22]): No differences | Synaptophysin (SYP) steady state level (3xTg mice [13]; [23]): significant increase | post-synaptic density protein 95 (PSD-95) steady state level (3xTg mice [13]; [23]): significant increase | dendritic protein MAP2 level (3xTg mice [13]; brain, 3xTg mice treated with MK-591 vs control group, similar to the increase of PSD-95 and SYP): A similar result | ADAM-10 protein level (N2A-APPswe cells [14]; [24]): did not influence | APH-1 protein steady state level (N2A-APPswe cells [14]; [24]): significant decrease | APP protein level (N2A-APPswe cells [14]; [24]): did not influence | BACE-1 protein level (N2A-APPswe cells [14]; [24]): did not influence | PS1 protein steady state level (N2A-APPswe cells [14]; [24]): significant decrease | Pen-2 protein steady state level (N2A-APPswe cells [14]; [24]): significant decrease | nicastrin protein steady state level (N2A-APPswe cells [14]; [24]): significant decrease | CREB expression level (N2A-APPswe cells [14]; MK-591, 24 hours vs vehicle): significant decrease | Sp1 level (N2A-APPswe cells [14]; MK-591, 24 hours vs vehicle): did not induce any significant alteration | p-CREB expression level (N2A-APPswe cells [14]; MK-591, 24 hours vs vehicle): significant decrease | CD45 immunoreactivity (marker of microgliosis) (Tg2576 mice [15]): significant decrease | GFAP immunoreactivity (marker for astrogliosis) (Tg2576 mice [15]): significant decrease
